Measured values from PMC12040169 (PLOS Biology, 2025).
Some of the results follow.

These molecules were tested on T1, CTL2-GFP (C. trachomatis L2/434/Bu, GFP-expressing). Conditions: bulk GFP, single well; 28.5 h, 10 µM; inhibitor.
T1 construct: L2/434/Bu, GFP-expressing
Parameters: species or system HeLa; Intracellular C. trachomatis growth in HeLa cells, bulk GFP fluorescence relative to DMSO
In the case of `O=[N+]([O-])c1cc(S(=O)(=O)Nc2ccc3cn[nH]c3c2)ccc1Cl` [CBK067160], the “% of control remaining” value is reported as 109.677%.
`OC1(c2cccnc2F)CCN(Cc2ccc(F)cc2F)CC1` [CBK284369] was tested, and the “% of control remaining” value was 123.555%.
For `COC(=O)c1csc2nc(NCCCO)sc12` [CBK058832], the “% of control remaining” value was 105.189%.
For `Cc1noc(C)c1CN(C)C(=O)NC1CCCc2c1cnn2CCO` (stereo not shown) [CBK306283], the “% of control remaining” value was 112.901%.
`COC[C@@H]1CCCN1S(=O)(=O)c1ccc(OC(F)(F)F)cc1` [CBK044338] was tested, and the “% of control remaining” value was 128.977%.
With `Cc1noc(C)c1NC(=O)c1ccc2nccnc2c1` [CBK200221] the “% of control remaining” value was 118.569%.
In the case of `Clc1cc(NCc2ccc(Cl)c(Cl)c2)n2nccc2n1` [CBK037043], the “% of control remaining” value is reported as 89.4427%.
In the case of `Cn1cc(CCNC(=O)Nc2ccc(CN3CCCC3=O)cc2)cn1` [CBK305410], the “% of control remaining” value is reported as 70.2546%.
`CO[C@]1(c2cccc(C)c2)CC[C@@H](N2CCCCC2)CC1` [CBK015909G] was tested, and the “% of control remaining” value was 117.066%.
`CN(Cc1ccc(-c2ccc(S(C)(=O)=O)cc2)nc1)C1CCN(C(=O)c2cc(Cl)ccc2Cl)CC1` [CBK165943T] was tested, and the “% of control remaining” value was 97.5099%.
With `O=C(CN1C(=O)c2ccc(Br)cc2C1=O)OCc1ccc(S(=O)(=O)N2CCOCC2)cc1` [CBK267505] the “% of control remaining” value was 154.235%.
In the case of `c1coc(-c2nnc(Nc3nc4cc5c(cc4s3)OCO5)o2)c1` [CBK287492], the “% of control remaining” value is reported as 143.312%.
For `Cc1sc(NC(=O)c2cc(-c3ccncc3)nc3ccc(Cl)cc23)c(C#N)c1C` [CBK267742], the “% of control remaining” value was 129.68%.
In the case of `Cc1cc(NS(=O)(=O)c2ccc(NC(=O)c3ccc(C(C)(C)C)c(Br)c3)cc2)no1` [CBK265629], the “% of control remaining” value is reported as 69.2808%.
In the case of `CCn1c(CC2CCN(C(=O)CCn3nnnc3C)CC2)nn(C)c1=O` [CBK307400], the “% of control remaining” value is reported as 123.228%.
`CC1CCc2n[nH]c(C(=O)NCCCC3CCOC3)c2C1` (stereo not shown) [CBK283212] was tested, and the “% of control remaining” value was 113.075%.
`CS(=O)(=O)NC1CCN(c2nc(C(=O)O)nc3ccccc23)CC1` [CBK304316N] was tested, and the “% of control remaining” value was 126.533%.
`Cc1cc(C)n(CC(=O)N2CCCC2c2cc3cccnc3[nH]2)n1` (stereo not shown) [CBK285074] was tested, and the “% of control remaining” value was 116.704%.
In the case of `CCC(C)(C)C1CCC(NC(=O)CSCCC(=O)O)CC1` (stereo not shown) [CBK296674], the “% of control remaining” value is reported as 110.599%.
In the case of `COCc1cc(C)nc(NCCO)c1C#N` [CBK262556], the “% of control remaining” value is reported as 104.693%.
With `COc1cc(NC(=O)NCc2cncn2CC(C)C)c2ncccc2c1` [CBK307182] the “% of control remaining” value was 138.773%.
With `NC(=O)CN1CC2(CCN(Cc3cccc(C(F)(F)F)c3)CC2)c2ccccc21` [CBK126776] the “% of control remaining” value was 108.076%.
For `Cc1ccc(NC(=O)CSc2nnc(COc3ccc(Cl)cc3Cl)o2)cc1Cl` [CBK264113], the “% of control remaining” value was 121.823%.
With `O=C(CSc1nccn1C1CC1)Nc1ccc(CN2CCOCC2)cc1` [CBK306071] the “% of control remaining” value was 143.913%.
For `Cc1ncc(CN(C)C(=O)Nc2cccc(C(=O)N3CCOCC3)c2)s1` [CBK305984], the “% of control remaining” value was 130.037%.
`Cc1cc(C)nc(SCC(=O)Nc2cc(C(=O)O)cc([N+](=O)[O-])c2)n1` [CBK268937] was tested, and the “% of control remaining” value was 142.329%.
For `CC(C)(C)OC(=O)N1CCC(c2nc(-c3cccnc3)no2)CC1` [CBK304332], the “% of control remaining” value was 148.485%.
With `CCn1c(SCC(=O)Nc2ccccc2OC)nnc1-c1ccc(N)cc1` [CBK265859] the “% of control remaining” value was 148.927%.
For `COCCCn1c(=O)[nH]c2ncc(-c3ccc(C(=O)N4CCOCC4)cc3)nc21` [CBK064366], the “% of control remaining” value was 106.491%.
For `COc1ccc(OC)c(-n2c(S)nnc2Cn2c(-c3ccccn3)nc3ccccc32)c1` [CBK269320], the “% of control remaining” value was 122.762%.
In the case of `COc1cc(NC(=O)CC2NC3CCCCC3NC2=O)cc(OC)c1OC` (stereo not shown) [CBK270012], the “% of control remaining” value is reported as 153.404%.
In the case of `Cc1cc(S(=O)(=O)Nc2ccc(C(C)(C)C)cc2)sc1C(=O)O` [CBK297946], the “% of control remaining” value is reported as 138.065%.
For `Cc1ccc(C(=O)NCC(c2ccccc2Cl)N2CCOCC2)c(=O)[nH]1` (stereo not shown) [CBK305928], the “% of control remaining” value was 109.674%.
`CN1C(=O)c2ccc(NS(C)(=O)=O)cc2C1=O` [CBK038158] was tested, and the “% of control remaining” value was 102.981%.
`CCCC(=O)NC[C@H]1CC[C@H](c2ccnc3cc(C)nn32)CC1` [CBK283474] was tested, and the “% of control remaining” value was 140.659%.
With `COc1ccc(CCNC(=O)c2n[nH]c(=O)c3ccccc23)cc1OC` [CBK270160] the “% of control remaining” value was 136.076%.
For `COc1ccc2c(c1)CCC1(C)C2=C(C(=O)O)CC1O` (stereo not shown) [CBK022814], the “% of control remaining” value was 145.703%.
For `Brc1c(OCc2ccccc2)ccc2[nH]ccc12` [CBK160845], the “% of control remaining” value was 153.132%.
In the case of `CC(C)[C@H](CO)Nc1nc(-c2cccc(OC(F)(F)F)c2)cnc1N` [CBK063957], the “% of control remaining” value is reported as 188.632%.
For `CC(NC(=O)c1ccc(=O)n(C)n1)c1ccc2c(c1)CCCC2` (stereo not shown) [CBK281416], the “% of control remaining” value was 134.872%.
